These are yes or no findings as the source states them, for the method shown. Binding seen in cells or lysates may run through a third protein. Some entries that bind do so weakly or less than the wild type. Sequences can lack the tags named with a protein.
How the values were obtained:
Assay in all cases: co-IP; 293T cells co-transfected with two tagged constructs; MG132 12 h before harvest; EBC lysis buffer; 500 μg protein with anti-FLAG M2-agarose or anti-HA agarose beads, 3 h, 4 °C; washed four times with NETN buffer; immunoblot
[1] = biological target: Flag-BMPRII (type II BMP receptor) (human) (UniProt Q13873)
[2] = biological target: Flag-BMPRIB (type IB BMP receptor) (human) (UniProt O00238)
[3] = biological target: Flag-BMPRIA (type IA BMP receptor) (human) (UniProt P36894)

Amino acid sequences for entries named in this document (tags omitted). Residues count along the entry.
UniProt Q13873, residues 27-1038: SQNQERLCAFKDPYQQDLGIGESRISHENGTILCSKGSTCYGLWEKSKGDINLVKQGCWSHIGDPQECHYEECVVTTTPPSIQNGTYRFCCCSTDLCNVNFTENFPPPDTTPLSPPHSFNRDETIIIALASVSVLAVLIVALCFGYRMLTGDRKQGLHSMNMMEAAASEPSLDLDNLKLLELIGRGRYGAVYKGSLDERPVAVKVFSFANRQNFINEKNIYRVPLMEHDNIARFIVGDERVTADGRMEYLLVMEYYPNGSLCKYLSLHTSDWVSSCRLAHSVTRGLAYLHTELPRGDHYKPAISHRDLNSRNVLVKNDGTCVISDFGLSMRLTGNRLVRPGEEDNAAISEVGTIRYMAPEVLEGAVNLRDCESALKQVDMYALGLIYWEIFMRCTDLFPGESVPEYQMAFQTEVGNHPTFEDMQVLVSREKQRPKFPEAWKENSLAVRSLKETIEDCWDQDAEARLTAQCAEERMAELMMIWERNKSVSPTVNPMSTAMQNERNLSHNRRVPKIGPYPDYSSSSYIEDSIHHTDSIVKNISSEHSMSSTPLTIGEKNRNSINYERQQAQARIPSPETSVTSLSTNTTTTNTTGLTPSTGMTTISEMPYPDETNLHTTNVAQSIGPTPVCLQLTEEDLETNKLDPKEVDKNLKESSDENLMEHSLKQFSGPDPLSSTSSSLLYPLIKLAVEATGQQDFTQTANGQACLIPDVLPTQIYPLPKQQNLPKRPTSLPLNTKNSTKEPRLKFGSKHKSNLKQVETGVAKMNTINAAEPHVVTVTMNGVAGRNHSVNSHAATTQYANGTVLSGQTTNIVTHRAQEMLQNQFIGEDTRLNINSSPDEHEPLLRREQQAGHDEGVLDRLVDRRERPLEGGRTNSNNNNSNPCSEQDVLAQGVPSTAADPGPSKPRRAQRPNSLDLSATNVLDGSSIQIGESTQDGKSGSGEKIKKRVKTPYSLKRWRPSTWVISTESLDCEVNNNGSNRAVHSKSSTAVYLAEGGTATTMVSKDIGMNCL
UniProt O00238, residues 14-502: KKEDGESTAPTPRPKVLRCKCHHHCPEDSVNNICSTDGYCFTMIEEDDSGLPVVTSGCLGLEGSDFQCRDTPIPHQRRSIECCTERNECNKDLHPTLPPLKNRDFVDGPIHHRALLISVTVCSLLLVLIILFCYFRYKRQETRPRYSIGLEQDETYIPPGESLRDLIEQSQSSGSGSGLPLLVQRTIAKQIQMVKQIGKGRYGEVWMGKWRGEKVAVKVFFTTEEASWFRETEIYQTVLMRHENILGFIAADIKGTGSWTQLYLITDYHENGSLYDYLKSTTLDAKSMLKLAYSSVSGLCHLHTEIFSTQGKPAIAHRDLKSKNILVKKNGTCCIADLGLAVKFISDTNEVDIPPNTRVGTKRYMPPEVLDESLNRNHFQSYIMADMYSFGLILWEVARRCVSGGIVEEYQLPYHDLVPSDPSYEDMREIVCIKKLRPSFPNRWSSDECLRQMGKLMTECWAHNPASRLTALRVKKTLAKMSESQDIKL
UniProt P36894, residues 24-532: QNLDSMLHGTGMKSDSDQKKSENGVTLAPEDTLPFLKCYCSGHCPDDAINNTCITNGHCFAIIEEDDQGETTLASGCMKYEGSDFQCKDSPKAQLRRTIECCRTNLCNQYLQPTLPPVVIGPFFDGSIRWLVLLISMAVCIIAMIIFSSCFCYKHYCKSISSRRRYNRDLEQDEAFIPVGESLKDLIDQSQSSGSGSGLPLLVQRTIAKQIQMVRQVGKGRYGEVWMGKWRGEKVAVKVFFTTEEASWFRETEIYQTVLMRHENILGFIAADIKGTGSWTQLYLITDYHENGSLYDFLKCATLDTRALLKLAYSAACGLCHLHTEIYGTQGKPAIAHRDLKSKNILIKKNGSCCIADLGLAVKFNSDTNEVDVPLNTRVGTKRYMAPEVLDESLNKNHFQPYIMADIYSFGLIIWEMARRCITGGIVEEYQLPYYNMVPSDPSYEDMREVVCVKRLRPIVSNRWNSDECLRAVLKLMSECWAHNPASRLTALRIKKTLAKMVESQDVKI

Measured: binding

B1: HA-OMD (protein, UniProt Q99983 21-421)
chain: QYETYQWDEDYDQEPDDDYQTGFPFRQNVDYGVPFHQYTLGCVSECFCPTNFPSSMYCDNRKLKTIPNIPMHIQQLYLQFNEIEAVTANSFINATHLKEINLSHNKIKSQKIDYGVFAKLPNLLQLHLEHNNLEEFPFPLPKSLERLLLGYNEISKLQTNAMDGLVNLTMLDLCYNYLHDSLLKDKIFAKMEKLMQLNLCSNRLESMPPGLPSSLMYLSLENNSISSIPEKYFDKLPKLHTLRMSHNKLQDIPYNIFNLPNIVELSVGHNKLKQAFYIPRNLEHLYLQNNEIEKMNLTVMCPSIDPLHYHHLTYIRVDQNKLKEPISSYIFFCFPHIHTIYYGEQRSTNGQTIQLKTQVFRRFPDDDDESEDHDDPDNAHESPEQEGAEGHFDLHYYENQE
binds: all assays above

Source: article PMC7862363
